{"source": "PubChem BioAssay AID504467", "about": "(National Center for Advancing Translational Sciences (NCATS), 2011)", "note": "Among all 330,000 compounds or so, about 7,700 (2.3%) were called active. The inconclusive results got no clear call from the source; some entries with a clear call stand among them for comparison. Calls follow the shape of the dose curve; as a rule, active = well fitted inhibition curve with a large enough effect; inconclusive = small, poorly fitted or top-dose-only effect, or effect the other way; inactive = flat fitted curve, though single readings scatter. A potency beside an inconclusive call is a rough fit, not a confirmed value. Potency is read from the fitted curve at half-maximal effect."}
{"test": "qHTS screen for small molecules that inhibit ELG1-dependent DNA repair in human embryonic kidney (HEK293T) cells expressing luciferase-tagged ELG1; also: nearly all actives have a fitted effect of over 55% in size", "conditions": "HEK293T ELG1-luciferase reporter, luminescence, 16 h, DNA damage induced by 5-fluorouridine; series mostly up to 46.1 µM", "summary_of_the_method": "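Quantitative HTS, concentration-response format. 2,000 cells/well co-treated with 5-fluorouridine and compound, 16 hr in 5% CO2 at 37 °C; ONE-Glo luminescence read after 30 min.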"}
{"smiles": "CSc1nc(-c2ccccc2)nn1C(=O)c1ccc(C)cc1", "Potency": "inactive"}
{"smiles": "CSc1ccccc1C(=O)C1CCCN(Cc2cnn(-c3ccccc3)c2)C1", "note": "(stereo not given)", "Potency": "inactive"}
{"smiles": "Cc1ccc(-c2nnc(NCc3ccccc3)c3ccccc23)cc1", "Potency": "inconclusive: 29.1 µM [inhibitor, single point]"}
{"smiles": "C[C@@H]1COC(=O)[C@H](CC(=O)OC(C)(C)C)C/C=C\\C[C@@H](CC(=O)NCCO)C(=O)N1", "Potency": "inactive"}
{"smiles": "O=C(/C=C/c1ccccc1Cl)Nc1ccccc1", "Potency": "inconclusive: 0.461 µM [activator, full curve]"}
{"smiles": "Cc1cc(C)nc(N/N=C/c2ccccc2OCc2ccc(Br)cc2)n1", "Potency": "inconclusive: 29.1 µM [inhibitor, single point]"}
{"smiles": "O=C1S/C(=C/c2ccc(N3CCOCC3)o2)C(=O)N1Cc1c(F)cccc1Cl", "Potency": "inconclusive: 20.6 µM [inhibitor, single point]"}
{"smiles": "COc1ccc(NC(=O)Cn2c(C)cc(=O)c3ccccc32)cc1", "Potency": "inactive"}
{"smiles": "Cn1c(=O)n(C)c2cc([N+](=O)[O-])c(N3CCN(S(=O)(=O)c4ccccc4)CC3)cc21", "Potency": "active: 11.6 µM"}
{"smiles": "O=C(NCc1ccncc1)C(=O)N/N=C/c1ccccc1OCc1ccccc1", "Potency": "inconclusive: 23.1 µM [activator, single point]"}
{"smiles": "CCc1ccc(NC(=O)CCn2ccnc2C)cc1", "Potency": "inconclusive: 23.1 µM [activator, single point]"}
{"smiles": "Cc1ccc(CNC(=O)C2CCN(S(=O)(=O)c3ccc4nc5c(c(C(=O)O)c4c3)CC(C)CC5)CC2)cc1", "note": "(stereo not given)", "Potency": "inconclusive: 8.2 µM [activator, partial curve]"}
{"smiles": "C#CCOCCOCCOCCNc1nc(N2CCN(C(=O)[C@H](CO)n3cc([C@@H](N)C(C)C)nn3)CC2)nc(N2CCN(C(=O)[C@H](CCC(=O)O)n3cc([C@@H](N)CCCCN)nn3)CC2)n1", "Potency": "inactive"}
{"smiles": "CC1CCC2(CC1)NC(=O)N(Cc1cccc(C(F)(F)F)c1)C2=O", "note": "(stereo not given)", "Potency": "inconclusive: 20.6 µM [inhibitor, single point]"}
{"smiles": "CCCOC(=O)c1[nH]c2c(c1C)C(=O)CC(c1cccs1)C2", "note": "(stereo not given)", "Potency": "inconclusive: 0.651 µM [inhibitor, single point]"}
{"smiles": "COc1ccc(C(=O)Nc2ccncc2)cc1OC", "Potency": "inconclusive: 23.1 µM [activator, partial curve, poor fit]"}
{"smiles": "Cc1ccc(-c2nc(N3CCN(C)CC3)c3ccccc3n2)cc1", "Potency": "inactive"}
{"smiles": "COc1ccc(N2CCN(C(=O)CCC(=O)N3CCOc4ccc(C)cc43)CC2)cc1", "Potency": "inconclusive: 25.9 µM [inhibitor, single point]"}
{"smiles": "C/C(=N\\NC(=O)c1c(Cl)cnn1C)c1cccc(NC(=O)COc2ccccc2)c1", "Potency": "inconclusive: 32.6 µM [inhibitor, single point]"}
{"smiles": "CN(CCCNC(=O)c1ccc(CS(=O)c2ccc(Br)cc2)o1)Cc1ccccc1", "note": "(stereo not given)", "Potency": "inactive"}
{"smiles": "CN1CCN(c2nnc(-c3ccc(F)cc3)c3ccccc23)CC1", "Potency": "inactive"}
{"smiles": "O=C(Nc1ccc(F)cc1F)c1csc(-c2cccs2)n1", "Potency": "inconclusive: 16.4 µM [activator, partial curve]"}
{"smiles": "CN(CC(=O)Nc1ccc(Cl)cc1)CC(=O)Nc1ccc(C(N)=O)cc1", "Potency": "inactive"}
{"smiles": "COc1ccc2c(c1)CC/C(=C\\Nc1ccc3c(c1)OCO3)C2=O", "Potency": "inconclusive: 3.66 µM [activator, full curve]"}
{"smiles": "CCCN(CC(=O)Nc1cc(Cl)ccc1Cl)C(=O)/C=C/c1ccco1", "Potency": "inactive"}
{"smiles": "CC(=O)NCC(=O)OCC(=O)Nc1nc(-c2ccccc2)cs1", "Potency": "inconclusive: 20.6 µM [activator, partial curve]"}
{"smiles": "COC(=O)c1cc(OC)c(OC)cc1NC(=O)c1cc(C(C)(C)C)oc1C", "Potency": "inconclusive: 2.06 µM [inhibitor, partial curve, poor fit]"}
{"smiles": "O=S(=O)(NC1c2cccc3cccc(c23)C1N1CCNCC1)c1ccc(Cl)cc1", "note": "(stereo not given)", "Potency": "inactive"}
{"smiles": "C/C(=N\\N=C(/N)c1nonc1N)c1ccc2c(c1)OCO2", "Potency": "inconclusive: 4.61 µM [activator, partial curve]"}
{"smiles": "CC(C)N(C(=O)c1nn(C)c2c1CSc1ccccc1-2)C1CCCCC1", "Potency": "inconclusive: 25.9 µM [inhibitor, partial curve, poor fit]"}
{"smiles": "CCOc1c(Br)cc(/C=N\\NC(=O)c2ccccc2)cc1OC", "Potency": "inconclusive: 25.9 µM [inhibitor, single point]"}
{"smiles": "CN(C(=O)COC(=O)Cc1c(Cl)cccc1Cl)C1CCS(=O)(=O)C1", "note": "(stereo not given)", "Potency": "inactive"}
{"smiles": "C=CCn1c(SCC(=O)c2c(N)n(CCC)c(=O)n(C)c2=O)nc2sc(CC)cc2c1=O", "Potency": "inconclusive: 10.3 µM [inhibitor, partial curve]"}
{"smiles": "O=C(NCCCN1CCCC1=O)Nc1ccccc1Cl", "Potency": "inconclusive: 18.3 µM [activator, single point]"}
{"smiles": "CCCN1CCC(=O)N([C@H](CN=[N+]=[N-])CC(C)C)CC1", "Potency": "inconclusive: 0.259 µM [inhibitor, partial curve]"}
{"smiles": "COCc1cc(=O)[nH]c(SCC(=O)c2ccccc2)n1", "Potency": "inconclusive: 9.2 µM [activator, partial curve, poor fit]"}
{"smiles": "O=C(NC1CCCC1)c1cccc2c1C(=O)c1ccc(/C=C/c3ccccc3)cc1S2(=O)=O", "Potency": "inconclusive: 10.3 µM [inhibitor, partial curve]"}
{"smiles": "OC(CNCCc1ccc(C(F)(F)F)cc1)COc1cccc2ccccc12", "note": "(stereo not given)", "Potency": "inactive"}
{"smiles": "c1cc(-c2nc3cc(Cc4ccc5oc(-c6ccncc6)nc5c4)ccc3o2)ccn1", "Potency": "inactive"}
{"smiles": "CC(C)CCNc1nc(N)c([N+](=O)[O-])c(N2CCCCCC2)n1", "Potency": "inconclusive: 9.2 µM [inhibitor, partial curve, poor fit]"}
{"smiles": "COCCNC(=O)c1ccc(CSc2nc3ccccc3s2)cc1", "Potency": "inconclusive: 9.2 µM [activator, partial curve, poor fit]"}
{"smiles": "O=C(COc1ccc(OCc2ccccc2)cc1)NC1CCOC1=O", "note": "(stereo not given)", "Potency": "inconclusive: 35.5 µM [activator, single point]"}
{"smiles": "COc1ccc(NC(=O)C(Cc2cc(C)cc(C)c2)C(C)C(=O)O)cc1", "note": "(stereo not given)", "Potency": "inactive"}
{"smiles": "Cc1ccc([N+](=O)[O-])cc1N=Cc1ccc(Br)s1", "Potency": "inconclusive: 20.6 µM [activator, partial curve]"}
{"smiles": "O=C(Nc1ccc2c(c1)OCO2)C1CC1", "Potency": "inconclusive: 5.8 µM [activator, full curve, poor fit]"}
{"smiles": "CC(C)N1CCN(Cc2cn[nH]c2C2CCCCC2)CC1CCO", "note": "(stereo not given)", "Potency": "inactive"}
{"smiles": "O=C(NC(=S)Nc1ccc(N2CCOCC2)cc1)c1cccc(Cl)c1Cl", "Potency": "inactive"}
{"smiles": "Cc1cccc(C(=O)NC2CC3CCCC(C2)N3S(=O)(=O)c2ccccc2)c1", "note": "(stereo not given)", "Potency": "active: 23.1 µM"}
{"smiles": "CCN(CC)c1ccc(/C=C(\\C#N)C(=O)c2ccc(Br)cc2)cc1", "Potency": "inactive"}
{"smiles": "COc1ccc(NC(=O)NCC(C)CSc2ccc(C)cc2)c(OC)c1", "note": "(stereo not given)", "Potency": "inconclusive: 14.6 µM [inhibitor, partial curve, poor fit]"}
{"smiles": "O=C(O)/C=C/C(=O)Nc1ccc2nccnc2c1", "Potency": "inconclusive: 20.6 µM [activator, single point]"}
{"smiles": "O=C(COc1ccc(Cl)cc1)Nc1ccccc1C(=O)NCc1cccnc1", "Potency": "inactive"}
{"smiles": "COc1ccc(CNC(=O)C2=CC(c3ccc(OC)c(OC)c3)=NS(=O)(=O)N2C)cc1", "Potency": "inactive"}
{"smiles": "CCc1ccc(C(C)NC(=O)/C=C/c2ccc(Br)cc2)cc1", "note": "(stereo not given)", "Potency": "inconclusive: 29.1 µM [inhibitor, single point]"}
{"smiles": "CC(C)Cn1c(N)c(C(=O)CSc2ccccc2)c(=O)n(C)c1=O", "Potency": "active: 23.1 µM"}
{"smiles": "Cc1ccc(-c2cc(C(=O)O)c3ccccc3n2)s1", "Potency": "inconclusive: 13 µM [activator, partial curve]"}
{"smiles": "COc1ccc(S(=O)(=O)N(CC(=O)N/N=C/c2cccs2)c2cc(C)cc(C)c2)cc1OC", "Potency": "inconclusive: 16.4 µM [inhibitor, single point]"}
{"smiles": "COc1cccc(CNC(=O)CCCn2ccc3cc(S(=O)(=O)N4CCCC4)ccc32)c1", "Potency": "active: 23.1 µM"}
{"smiles": "Cc1[nH]n(-c2cccc3ccccc23)c(=O)c1/C=N/NC(=O)c1cccc([N+](=O)[O-])c1", "Potency": "inconclusive: 18.4 µM [inhibitor, partial curve, poor fit]"}
{"smiles": "Cc1ccc(S(=O)(=O)N2CCCC2CNC(=O)c2ccccc2)cc1", "note": "(stereo not given)", "Potency": "inactive"}
{"smiles": "CCN(CC(=O)Nc1ccc(NC(C)=O)cc1)C(=O)c1cccnc1Sc1ccc(C)c(C)c1", "Potency": "inactive"}
{"smiles": "CN(C)S(=O)(=O)c1ccc(C(=O)Nc2ccc(Cl)cc2)cc1", "Potency": "inconclusive: 29.1 µM [inhibitor, single point]"}
{"smiles": "O=C(NC(=S)Nc1ccccc1Cl)C1CC1", "Potency": "inconclusive: 23.1 µM [activator, partial curve]"}
{"smiles": "CCOC(=O)c1c(NC(=O)COC(=O)c2nc(Cl)ccc2Cl)sc(C(=O)NC)c1C", "Potency": "inconclusive: 20.6 µM [inhibitor, single point]"}
{"smiles": "CSc1ccccc1NC(=O)Nc1ccc(F)c(Cl)c1", "Potency": "inconclusive: 22.4 µM [activator, single point]"}
{"smiles": "CC(=O)c1ccc(NC(=O)CSc2nnc(-c3ccco3)o2)cc1", "Potency": "inconclusive: 18.3 µM [activator, partial curve, poor fit]"}
{"smiles": "CC(C)CNC(=S)NC(=O)c1ccccc1Cl", "Potency": "inconclusive: 29.1 µM [activator, single point]"}
{"smiles": "COc1cc2ccccc2cc1C(=O)N1CCCC(C(F)(F)F)C1", "note": "(stereo not given)", "Potency": "inactive"}
{"smiles": "O=C(CN1C(=O)S/C(=C\\C=C\\c2ccccc2)C1=O)NC1CCS(=O)(=O)C1", "note": "(stereo not given)", "Potency": "inconclusive: 14.6 µM [activator, partial curve]"}
{"smiles": "Cc1ccc(-c2ccc(SCC(=O)Nc3nonc3C)nn2)cc1", "Potency": "inconclusive: 23.1 µM [activator, partial curve, poor fit]"}
